Laboratory results published in the supplement of paper PMC3334620.
Over roughly 33,000 sequences, “E-score (-0.5 to 0.5)” has its median near -8e-05; the highest 2% begin near 0.23. The list shows a part of the results.

The sequences below were run against T1, Nrg2 (UniProt P38082) (assay: PBM E-score (8-mer binding enrichment) (E-score (-0.5 to 0.5)); higher = stronger / more preferred TF binding). Conditions: protein concentration: 100 nM; construct: GST-full length.
T1 sequence: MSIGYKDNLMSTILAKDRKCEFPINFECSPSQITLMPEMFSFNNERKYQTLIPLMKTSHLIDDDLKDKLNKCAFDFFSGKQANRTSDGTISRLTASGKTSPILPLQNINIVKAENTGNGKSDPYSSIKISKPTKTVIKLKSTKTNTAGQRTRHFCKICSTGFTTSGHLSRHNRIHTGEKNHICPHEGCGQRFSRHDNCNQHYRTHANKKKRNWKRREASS
How it was run: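 E-scores (a modified Wilcoxon-Mann-Whitney statistic) were assigned by the Universal PBM Analysis Suite to every ungapped eight-base word pooled with its reverse complement. The input came from universal all-10-mer Agilent arrays made double-stranded by primer extension and probed with GST-tagged yeast transcription factors at about 100-200 nM. Fluorescent anti-GST detected bound protein, and masliner normalised the scans.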

Sequence	PBM E-score
CGACTCAA	0.062
CGACGTAA	-0.0403
ACCGGTAT	0.0481
AATGGCGC	0.0453
AAGGTGGA	-0.0569
CGGTAAAC	-0.0982
ATGCCAAA	-0.0611
CGATTACA	-0.0482
AGACATCG	-0.103
ATCCTGAA	0.125
ACTCACCT	-0.109
AAAGAGCA	0.0706
ACAGAGTC	0.0468
GTTACCAA	0.109
CGGGACAG	0.0943
AGCGCCAA	-0.18
GAGTTTCC	-0.216
GTTGCTCA	0.1
CGGACAGC	0.06
CCGAGAGA	0.0866
AGTTATAT	0.192
AACTCATA	0.0735
ACGCGCGA	0.209
GTACGAAA	0.0842
GAACTATA	0.147

Sequence	PBM E-score
ACTCTAGG	-0.0983
AGGGCCTG	-0.00651
ATTGCCTG	0.0693
GAACATTA	0.118
CACGGATG	-0.149
AACTGATG	0.0302
CCATCACA	0.00485
AAGCGCCC	0.0375
AAAGGGTA	0.152
CAAGGGGA	0.127
CGAGTCTA	-0.233
TCAAATCA	-0.0452
AAAAACCT	0.186
CTGCCCGA	-0.0222
AAATCGGC	0.00041
CGGTGACC	-0.219
AGCAACCA	0.179
AGTATTAG	0.273
CAATGTCC	-0.0878
CCATATTC	0.00369
ATCAGCCC	-0.0267
ACCTTCGG	-0.034
CTCGGCGA	0.0899
AAAGGAAA	0.0754
ATGTAACA	0.128

Sequence	PBM E-score
GTGTTTCA	-0.246
AGGAAGGC	-0.222
GCTATAAC	-0.169
GCCTGAAC	-0.211
CTTCAGAA	0.0224
CCCTACGC	-0.0978
CCCCACCC	0.162
GGGCCACC	-0.0295
AAATCTAA	0.00125
AGTTTTGA	0.0128
ACTCCAAC	0.116
GCAGCAAA	0.0947
ACTCTAAT	0.168
GATCCTCC	-0.235
GGGATTGA	0.0443
CACGTGTC	-0.108
GGGCCCAA	0.244
CGGGGGGC	-0.4
GTGCCAGA	-0.111
GGTATGCA	-0.082
CGGTATAC	-0.0175
AGAGGCCT	-0.0985
AAGGTTGC	0.0635
ATCGATGG	-0.00808
CGCTTGGA	0.0295

Sequence	PBM E-score
CAGTATGC	0.0397
AGTGTAAA	0.0642
TATCTCGA	0.0972
GGCTCGAC	-0.0112
GCCTCACC	-0.0884
ACACTCCC	-0.0932
CATTTTCA	0.193
GGTCCGTA	0.0401
CAGGAATA	0.00101
ATTTAATC	0.203
TTCCGAAA	-0.0432
CCAAGTTA	-0.0706
TAAGTACA	-0.00245
ATCATAAA	0.123
GGGTCCAA	0.322
GGAATAAA	0.0515
CGGACCTA	0.0604
GGATGGAA	-0.0686
AATGGCCT	0.0811
AGGAGCCT	-0.331
CACTGGAG	-0.0971
ACAGCGTC	0.0812
ATCAGCAG	0.103
CGGACGCC	-0.238
GCTTGGGA	0.00089

Sequence	PBM E-score
ACATCCGG	-0.0147
CTGGCTTA	-0.124
GGTTCGCA	-0.137
AATTTTAA	0.052
ATTAAATG	0.148
GCGGTGCA	0.0246
ATAGCCAA	0.0578
AATGAGTA	0.139
GGTAAAGA	-0.0308
CTGTACCC	-0.108
CGTCTGAA	-0.151
ACCTTCCG	0.0331
AAATGCCC	-0.0928
ACGATTTG	0.128
CTATTAGC	0.129
AACTGGGT	0.0205
ATCATTTC	0.242
ATACAACG	0.0553
AGTACAAG	0.0113
AACACCAA	0.128
ACAGCACG	0.0899
CGCGTCGA	0.16
AAAGGCAC	-0.0414
ACGTACGT	-0.252
ACTACTCA	0.103

Sequence	PBM E-score
CGGCCTAG	-0.129
CTAAAACC	0.102
ACCGAGCG	-0.101
ACATACGA	0.0374
TCGTTCCA	-0.231
ATGTTTGC	-0.0408
ATTAAAGA	0.157
ACATCGTA	0.025
AGTACTGG	-0.128
GTGATGGA	-0.0813
TCCGTGCA	0.134
TAGTCCAA	-0.0982
AGGCCTGG	-0.167
ACACAGCG	0.179
CGTTCCAC	-0.187
ATAGACTC	-0.26
CAACCTTA	0.0819
CAGACTAC	-0.0891
CTTAATTA	0.146
CAAGCCAA	-0.00536
GAGTAGCA	0.0981
AGTCCATC	-0.151
TATCGGAA	0.0162
CTAGCGAC	-0.0336
AATCCCAG	-0.0069

Sequence	PBM E-score
GTGCCCTA	-0.218
GTCGCTTA	0.0518
CGTCGCGA	0.143
ACCTGGCT	-0.102
AACATGAC	0.158
TCGGCTCA	-0.134
GCCATGGA	0.0938
GAGTACGA	0.0575
GCAGTATA	0.139
GGTCGGTA	-0.00181
AGACTGAT	-0.0162
CACTCTGC	0.0789
CGGGGGCC	-0.325
GTCCGTGA	-0.0209
CGTCAAGC	-0.118
CAAGAAGG	-0.0466
AATGTTCA	0.145
GTGGACCA	0.0574
CGTTTGTC	-0.0352
GATTGCCC	-0.0761
ACTGCTTC	-0.107
CTAACCAC	-0.0626
AGGACTAG	0.0505
GATGCACC	-0.0073
TTCAAGAA	0.0685

In another format: results already given.

| Sequence | PBM E-score |
| --- | --- |
| ATAGCCAA | 0.0578 |
| AATGAGTA | 0.139 |
| GGTAAAGA | -0.0308 |
| CTGTACCC | -0.108 |
| CGTCTGAA | -0.151 |
| ACCTTCCG | 0.0331 |
| AAATGCCC | -0.0928 |
| ACGATTTG | 0.128 |
| CTATTAGC | 0.129 |
| AACTGGGT | 0.0205 |
| ATCATTTC | 0.242 |
| ATACAACG | 0.0553 |
| AGTACAAG | 0.0113 |
| AACACCAA | 0.128 |
| ACAGCACG | 0.0899 |
| CGCGTCGA | 0.16 |
| AAAGGCAC | -0.0414 |
| ACGTACGT | -0.252 |
| ACTACTCA | 0.103 |
| CGGCCTAG | -0.129 |
| CTAAAACC | 0.102 |
| ACCGAGCG | -0.101 |
| ACATACGA | 0.0374 |
| TCGTTCCA | -0.231 |
| ATGTTTGC | -0.0408 |
| ATTAAAGA | 0.157 |
| ACATCGTA | 0.025 |
| GTGATGGA | -0.0813 |
| TAGTCCAA | -0.0982 |
| AGGCCTGG | -0.167 |
| ACACAGCG | 0.179 |
| CGTTCCAC | -0.187 |
| ATAGACTC | -0.26 |
| CAACCTTA | 0.0819 |
| CAGACTAC | -0.0891 |
| CTTAATTA | 0.146 |
| CAAGCCAA | -0.00536 |
| GAGTAGCA | 0.0981 |
| AGTCCATC | -0.151 |
| TATCGGAA | 0.0162 |
| CTAGCGAC | -0.0336 |
| AATCCCAG | -0.0069 |
| GTGCCCTA | -0.218 |
| GTCGCTTA | 0.0518 |
| CGTCGCGA | 0.143 |
| ACCTGGCT | -0.102 |
| AACATGAC | 0.158 |
| TCGGCTCA | -0.134 |
| GAGTACGA | 0.0575 |
| GCAGTATA | 0.139 |
| GGTCGGTA | -0.00181 |
| AGACTGAT | -0.0162 |
| CACTCTGC | 0.0789 |
| CGGGGGCC | -0.325 |
| GTCCGTGA | -0.0209 |
| CGTCAAGC | -0.118 |
| CAAGAAGG | -0.0466 |
| AATGTTCA | 0.145 |
| GTGGACCA | 0.0574 |
| CGTTTGTC | -0.0352 |
| GATTGCCC | -0.0761 |
| ACTGCTTC | -0.107 |
| CTAACCAC | -0.0626 |
| AGGACTAG | 0.0505 |
| GATGCACC | -0.0073 |
| TTCAAGAA | 0.0685 |

Carrying on.

Sequence	PBM E-score
TCCTAGCA	-0.201
CCGAATGC	0.111
GGTTGTAA	0.0146
CGGGCCGA	-0.182
GCGGGGAA	0.101
GAAGGCCC	-0.216
CCTTCCCG	-0.122
AGAAAAAG	-0.00443
CTGCCAAG	-0.221
AGTCAGGA	0.0134
TCGAGAAA	-0.0546
AGGGAAGC	-0.0318
ACATAGCA	-0.00783
TAGGAATA	-0.0845
CTATTTAA	0.0579
ACTGCTCG	0.0889
AGTCTGAG	-0.319
ATCGCGGG	0.213
AGTTAAGG	0.0234
ATTTTATG	0.0312
CTACGTGC	-0.0576
AGACATAA	0.021
GCAGAAGA	0.0164
CCAGTACG	-0.131
CCGTATAG	-0.0765

Sequence	PBM E-score
GTCTTTAA	-0.0888
GAGCAGCC	-0.0249
GTATGTCA	0.0885
AGCCGTAA	-0.0562
GCGCACCA	0.109
CCTGCTAA	-0.0759
TCTAAACA	-0.15
ATTCATCA	0.181
ACAGCCAG	0.104
CGATGGAA	-0.0846
AACACTGG	0.0606
ACTCTTCC	-0.212
CGGAAGGC	-0.319
ACGCGGCC	-0.153
GAGTAGAA	-0.0201
GAAGACCA	-0.0291
ATAAGAGC	0.0649
AGGTAGTA	0.18
ACGCAGCG	-0.0861
CAGCCCGA	-0.0629
AGTCATTC	-0.0596
ATGCGACG	-0.0474
AGGAACAC	0.131
CTTACGAA	0.00101
TACTGGCA	-0.131

Sequence	PBM E-score
GAGGGCAA	0.113
AACCTACA	0.104
TACTCGGA	0.157
CACCTAGA	-0.0936
AAGAGGAT	-0.211
ACAAGATC	-0.117
CTATGCAG	-0.0253
AAAATTGT	0.113
TCCCTGCA	0.25
GACGTGCC	0.0221
GTTGAGAA	-0.00227
ATTAACGG	0.0653
ATGGCCTA	0.00552
AGGGGGTC	-0.163
GACCAATC	0.0952
GTGTCAGA	-0.107
ACTGCTCT	0.00123
GTACTGCA	-0.0299
CCCGGGAG	-0.0389
AATAGTGC	0.077
CAGTACAC	0.0233
CTACATCC	-0.0578
CATAAGTC	0.0683
CCCCAACC	-0.00576
GGACGTCC	0.0882

Sequence	PBM E-score
GAAATGCC	-0.00619
AGAAAGAC	0.115
CAGAACAG	0.0915
GATTTCGA	0.00717
AGCGGTGA	-0.167
AGTAATAA	0.12
ACTAAGAG	-0.0703
CGCATGCA	0.246
AGGCCGTA	0.0631
TATTTAAA	0.221
GTAAGACA	-0.0374
AGTTCCAA	-0.0923
AATTGCAC	0.144
CGTACTGC	-0.00898
GGTATTAC	0.169
GGGACCGA	0.0973
AAACAAGG	0.0234
AATACCCA	0.192
AAAGCGAA	0.155
ATCCATTC	0.109
CAGGGTTC	0.387
CATTGGGG	-0.108
AGTCTAGG	-0.299
AGGGGCAA	0.0442
AGTGTTGA	0.125

Sequence	PBM E-score
AAGTGATG	-0.0026
GCACCGAA	-0.0118
AATTCGAG	-0.0416
AGAAAAAA	0.0465
ATCCTTGG	0.0934
CCATTTAA	-0.00324
CACTCAGC	0.0295
AACTCGTC	0.0348
ACTTCTCG	0.0762
AAGACTGT	-0.21
AAGTTGAG	0.00922
GGATTCGA	-0.0125
ACGAAACC	0.207
CAGGTCGA	0.159
CGCGATGC	-0.18
AGTTCCCA	0.122
ACAGGTGA	0.207
AGGGTCCG	0.374
CATATCGG	-0.00381
CTTCTCCA	-0.0386
CAAATATA	0.03
TGTGTCAA	0.0121
CAGGACGC	-0.095
AGCGGTAG	-0.196
CAGGGGGC	0.00087

Sequence	PBM E-score
GCCCGCGA	0.101
ACCTGTAT	0.0302
AAAATCGG	0.00405
GTCCTGGA	-0.261
GACGATGA	-0.104
CCGCGTTC	0.0737
CTGTCTAC	-0.0488
GACGTTTA	-0.0222
GAAAAATC	0.099
AGGATGTA	0.133
ACTGGCCG	-0.204
CGTAGAAC	-0.179
ATAGAAGC	0.0847
ACAATCTC	0.0737
AACTCACC	0.14
CAGTACCG	-0.107
TAAGCAAA	0.0437
GTTTGAGA	-0.0452
GCAACGGA	0.162
CAGATGAC	-0.134
ACAACAGT	0.00778
AACGGCAT	0.23
ACTCAAAC	0.0952
AACAATTG	0.0115
GGGGGGTA	-0.443

Sequence	PBM E-score
GACTTACC	-0.167
CTCAGCGC	0.0699
GGCCCCCA	-0.432
ACGACCCC	-0.00055
CTACTAGC	0.137
GATGCTGA	-0.186
ACGGAAAG	0.0778
GACGCTAC	-0.0645
ACTAACCT	0.198
TGTCACAA	0.0819
CTATACCC	0.0295
CTTACCAA	0.069
GCCTGTCC	-0.0509
CCAACACG	0.0552
GTACCGCA	0.115
AATGAATA	0.0473
CGGACGAG	-0.0232
ATCTCCGA	0.125
CGCACAAC	0.156
